PubChem BioAssay AID1224828 | NIAID | 2016

Assay: 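Regulators linking TLR4 signalling to p65 nuclear translocation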 (primary screen)
Cell system: mouse RAW264.7 G9 macrophage reporter cells (GFP-p65, Tnf promoter-mCherry)
Reagent: siRNA pool against mouse genes, 100 nM
Timing: 2 days siRNA transfection, then 40 min LPS before fixation
Treatment: LPS (Salmonella minnesota R595) at 10 ng/ml
Read-out: 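Microscopy ratio of nuclear to perinuclear-ring GFP-p65 signal, scaled to the plate median; gene score is the average of two replicate robust z-scores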
Reading the numbers: p65 translocation robust z-score: higher = more nuclear NF-kappaB p65 after LPS than the plate median; nuclear/cytoplasmic p65 ratio: higher = more nuclear NF-kappaB p65
Call rule: 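Active if robust z is above 3.3 (negative regulators) or below -1.56, the Tlr4 control median (positive regulators); activity score 50 or more; control wells not called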
Meaning of the calls: active = hit (p65 shift raised or lowered); inactive = no clear change
Here is one part, drawn at random, of about 17,000 reagents. 762 of them (4.5%) count as active. 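Active calls include both raised and lowered p65 entry, mostly lowered; wells with fewer than 50 cells lack a z-score.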 Raw values are not corrected between plates.

Target gene | p65 translocation robust z-score | nuclear/cytoplasmic p65 ratio, rep 1 | nuclear/cytoplasmic p65 ratio, rep 2 | low cell count flag | call
C530043A13Rik (RIKEN cDNA C530043A13 gene) | 1.3 | 1.56 | 1.75 | enough cells to score | inactive
Flywch2 (FLYWCH family member 2) | – | 1.08 | 1.41 | fewer than 50 cells per well; well left out of scoring | inactive
Tex13a (testis expressed 13A) | 2.08 | 1.9 | 1.45 | enough cells to score | inactive
Dlk2 (delta like non-canonical Notch ligand 2) | – | 1.05 | 1.36 | fewer than 50 cells per well; well left out of scoring | inactive
Nadsyn1 (NAD synthetase 1) | – | 1.51 | 1.62 | fewer than 50 cells per well; well left out of scoring | inactive
Ermap (erythroblast membrane-associated protein) | 1.05 | 1.76 | 1.6 | enough cells to score | inactive
Tacr1 (tachykinin receptor 1) | -1.25 | 1.38 | 1.35 | enough cells to score | inactive
4930522H14Rik (RIKEN cDNA 4930522H14 gene) | -0.93 | 1.15 | 1.21 | enough cells to score | inactive
Abhd5 (abhydrolase domain containing 5) | -0.07 | 1.58 | 1.63 | enough cells to score | inactive
Or1l4 (olfactory receptor family 1 subfamily L member 4) | 0.18 | 1.68 | 1.41 | enough cells to score | inactive
Foxh1 (forkhead box H1) | -0.41 | 1.31 | 1.39 | enough cells to score | inactive
Pip4k2b (phosphatidylinositol-5-phosphate 4-kinase, type II, beta) | – | 1.31 | 1.23 | fewer than 50 cells per well; well left out of scoring | inactive
Pin1 (peptidyl-prolyl cis/trans isomerase, NIMA-interacting 1) | -0.95 | 1.37 | 1.28 | enough cells to score | inactive
Mamstr | -0.43 | 1.37 | 1.33 | enough cells to score | inactive
Nfatc1 | – | 1.3 | 1.07 | fewer than 50 cells per well; well left out of scoring | inactive
Pofut2 (protein O-fucosyltransferase 2) | 0.46 | 1.48 | 1.23 | enough cells to score | inactive
Kcnmb1 | 2.69 | 1.54 | 1.79 | enough cells to score | inactive
Serpinf2 (serine (or cysteine) peptidase inhibitor, clade F, member 2) | 1.4 | 1.66 | 1.85 | enough cells to score | inactive
Prkacb (protein kinase, cAMP dependent, catalytic, beta) | 0.09 | 1.7 | 1.39 | enough cells to score | inactive
Abhd1 (abhydrolase domain containing 1) | -0.53 | 1.5 | 1.63 | enough cells to score | inactive
Als2 (alsin Rho guanine nucleotide exchange factor) | 0.94 | 1.78 | 1.74 | enough cells to score | inactive
Cpe (carboxypeptidase E) | 0.42 | 1.37 | 1.41 | enough cells to score | inactive
Slc25a44 | -0.4 | 1.24 | 1.52 | enough cells to score | inactive
Slc41a2 | – | 1.11 | 1.46 | fewer than 50 cells per well; well left out of scoring | inactive
Klf8 (Kruppel-like transcription factor 8) | 0.13 | 1.67 | 1.59 | enough cells to score | inactive
Vps26c (VPS26 endosomal protein sorting factor C) | -0.24 | 1.45 | 1.31 | enough cells to score | inactive
H2-DMb1 (histocompatibility 2, class II, locus Mb1) | 0.04 | 1.39 | 1.43 | enough cells to score | inactive
Rrp12 (ribosomal RNA processing 12 homolog) | -0.26 | 1.29 | 1.55 | enough cells to score | inactive
Prkar1b (protein kinase, cAMP dependent regulatory, type I beta) | -0.26 | 1.4 | 1.43 | enough cells to score | inactive
Gm5114 (predicted gene 5114) | – | 1.41 | 1.08 | fewer than 50 cells per well; well left out of scoring | inactive
Rrp8 (ribosomal RNA processing 8) | 0.16 | 1.52 | 1.51 | enough cells to score | inactive
Ctnnal1 (catenin alpha like 1) | -0.24 | 1.51 | 1.28 | enough cells to score | inactive
Adck5 (aarF domain containing kinase 5) | -1.53 | 1.37 | 1.25 | enough cells to score | inactive
Ccm2l (cerebral cavernous malformation 2-like) | -0.41 | 1.59 | 1.69 | enough cells to score | inactive
Cftr (CF transmembrane conductance regulator) | -0.43 | 1.35 | 1.32 | enough cells to score | inactive
Atg4c (autophagy related 4C, cysteine peptidase) | – | 1.7 | 1.92 | fewer than 50 cells per well; well left out of scoring | inactive
Gripap1 (GRIP1 associated protein 1) | 0.78 | 1.6 | 1.46 | enough cells to score | inactive
Nkain3 (Na+/K+ transporting ATPase interacting 3) | 0.6 | 1.63 | 1.36 | enough cells to score | inactive
Mrps2 (mitochondrial ribosomal protein S2) | 0.34 | 1.9 | 1.59 | enough cells to score | inactive
Or6c38 (olfactory receptor family 6 subfamily C member 38) | – | 1.35 | 1.16 | fewer than 50 cells per well; well left out of scoring | inactive
Aco2 (aconitase 2, mitochondrial) | -0.36 | 1.61 | 1.57 | enough cells to score | inactive
Hoxb5 (homeobox B5) | 0 | 1.41 | 1.4 | enough cells to score | inactive
Creld1 (cysteine-rich with EGF-like domains 1) | 0.05 | 1.58 | 1.8 | enough cells to score | inactive
Arxes1 (adipocyte-related X-chromosome expressed sequence 1) | 0.26 | 1.42 | 1.62 | enough cells to score | inactive
Scn8a (sodium channel, voltage-gated, type VIII, alpha) | 0.21 | 1.51 | 1.65 | enough cells to score | inactive
P4hb (prolyl 4-hydroxylase, beta polypeptide) | 0.13 | 1.48 | 1.42 | enough cells to score | inactive
Slc15a5 | -0.51 | 1.3 | 1.53 | enough cells to score | inactive

The list goes on, starting with the last 2 of the part before.
Target gene | p65 translocation robust z-score | nuclear/cytoplasmic p65 ratio, rep 1 | nuclear/cytoplasmic p65 ratio, rep 2 | low cell count flag | call
P4hb (prolyl 4-hydroxylase, beta polypeptide) | 0.13 | 1.48 | 1.42 | enough cells to score | inactive
Slc15a5 | -0.51 | 1.3 | 1.53 | enough cells to score | inactive
Or5d39 (olfactory receptor family 5 subfamily D member 39) | -2.06 | 1.39 | 1.23 | enough cells to score | active
Zfp119b (zinc finger protein 119b) | 0.92 | 1.72 | 2 | enough cells to score | inactive
Fhod3 (formin homology 2 domain containing 3) | 0.98 | 1.72 | 1.64 | enough cells to score | inactive
Evc2 (EvC ciliary complex subunit 2) | -0.82 | 1.33 | 1.28 | enough cells to score | inactive
Gldc (glycine decarboxylase) | 1.3 | 1.62 | 1.53 | enough cells to score | inactive
Mthfr (methylenetetrahydrofolate reductase) | -0.53 | 1.27 | 1.28 | enough cells to score | inactive
Rpe (ribulose-5-phosphate-3-epimerase) | 0.05 | 1.42 | 1.23 | enough cells to score | inactive
Matn1 (matrilin 1, cartilage matrix protein) | 0.01 | 1.53 | 1.27 | enough cells to score | inactive
Slc25a26 | – | 1.32 | 1.22 | fewer than 50 cells per well; well left out of scoring | inactive
Mbd3l2 (methyl-CpG binding domain protein 3-like 2) | 0.47 | 1.74 | 1.66 | enough cells to score | inactive
H2-M10.4 (histocompatibility 2, M region locus 10.4) | 2.23 | 1.96 | 1.88 | enough cells to score | inactive
Zbtb21 (zinc finger and BTB domain containing 21) | – | 1.17 | 1.04 | fewer than 50 cells per well; well left out of scoring | inactive
Hoxc5 (homeobox C5) | 0.07 | 1.43 | 1.4 | enough cells to score | inactive
Tmem39a (transmembrane protein 39a) | 0.65 | 1.48 | 1.56 | enough cells to score | inactive
Pigl (phosphatidylinositol glycan anchor biosynthesis, class L) | 0.91 | 1.6 | 1.32 | enough cells to score | inactive
Sult1c1 (sulfotransferase family, cytosolic, 1C, member 1) | 0.64 | 1.53 | 1.3 | enough cells to score | inactive
Slc17a3 | 0.43 | 1.31 | 1.31 | enough cells to score | inactive
Mrpl14 (mitochondrial ribosomal protein L14) | -0.01 | 1.79 | 1.49 | enough cells to score | inactive
Neurod1 (neurogenic differentiation 1) | -2.54 | 1.11 | 1.03 | enough cells to score | active
D830016O14Rik (RIKEN cDNA D830016O14 gene) | 1.06 | 1.72 | 1.71 | enough cells to score | inactive
Txk (TXK tyrosine kinase) | -1 | 1.49 | 1.29 | enough cells to score | inactive
Osgin1 (oxidative stress induced growth inhibitor 1) | – | 1.69 | 1.31 | fewer than 50 cells per well; well left out of scoring | inactive
Cxxc5 (CXXC finger 5) | 0.34 | 1.61 | 1.86 | enough cells to score | inactive
H1f8 (H1.8 linker histone) | – | 1.41 | 1.42 | fewer than 50 cells per well; well left out of scoring | inactive
Ucp1 | 0.69 | 1.57 | 1.64 | enough cells to score | inactive
Or4d2 (olfactory receptor family 4 subfamily D member 2) | – | 1.02 | 1.02 | fewer than 50 cells per well; well left out of scoring | inactive
Jchain (immunoglobulin joining chain) | -1.31 | 1.35 | 1.21 | enough cells to score | inactive
Rbm26 (RNA binding motif protein 26) | -0.44 | 1.34 | 1.8 | enough cells to score | inactive
